Measurements reported in patent US7795213B2 (POSCO, priority 2002, dated 2010).
For at least one compound, name, drawing or mass did not settle the structure.

Target: T1, VEGF/Aβ interaction (VEGF165, biotinylated Aβ) (Homo sapiens, UniProt P15692)
T1 sequence (P15692 27-191 isoform P15692-4 limits assumed): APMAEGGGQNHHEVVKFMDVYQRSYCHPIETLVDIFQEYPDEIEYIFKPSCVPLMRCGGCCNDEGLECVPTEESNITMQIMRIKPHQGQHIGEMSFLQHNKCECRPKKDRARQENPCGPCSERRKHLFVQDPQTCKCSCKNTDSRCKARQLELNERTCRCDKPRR
Assay: Inhibition of biotinylated Aβ binding to coated VEGF165
Settings: VEGF165 50 ng/well; biotinylated Aβ 100 ng/ml; increasing concentration of test compound
Procedure: Biotinylated Aβ (100 ng/ml) was added to each well in the presence of increasing concentration of test compound. After 2 hours, each well was rinsed several times with 0.05% Tween in PBS. The bound biotinylated Aβ was determined with steptavidin conjugated with horse radish peroxidase.

SMILES: O=C(OC[C@H]1O[C@@H](OC(=O)c2cc(O)c(O)c(O)c2)[C@H](OC(=O)c2cc(O)c(O)c(O)c2)[C@@H](OC(=O)c2cc(O)c(O)c(O)c2)[C@@H]1OC(=O)c1cc(O)c(O)c(O)c1)c1cc(O)c(O)c(O)c1 [PGG, pentagalloyl glucose]
- inhibition of binding of Aβ to VEGF: inhibition
